Source: the supplement of paper PMC12823440, “Inhibitors supercharge kinase turnover through native proteolytic circuits” (Nature, 2025)
Where a name gives a salt, the structure may show the parent alone. The list shows a part of the results. The calls rarely recur for the same compound in another form.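 In K562 cells expressing nanoluciferase-fused kinases, luminescence was recorded at 4 h intervals between 2 and 18 h, normalized as percent of control with DMSO at 100% and a positive control at 0%. A significant (2 sigma) signal drop marks a time point as decreased. The authors' rule for a hit is not shown and takes in more than the number of time points.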

Chains of the proteins cited; added tags and fusions are not shown. Lines headed by an entry give the natural chain unless they say otherwise; changes in a name come on top.
UniProt Q01974, whole entry: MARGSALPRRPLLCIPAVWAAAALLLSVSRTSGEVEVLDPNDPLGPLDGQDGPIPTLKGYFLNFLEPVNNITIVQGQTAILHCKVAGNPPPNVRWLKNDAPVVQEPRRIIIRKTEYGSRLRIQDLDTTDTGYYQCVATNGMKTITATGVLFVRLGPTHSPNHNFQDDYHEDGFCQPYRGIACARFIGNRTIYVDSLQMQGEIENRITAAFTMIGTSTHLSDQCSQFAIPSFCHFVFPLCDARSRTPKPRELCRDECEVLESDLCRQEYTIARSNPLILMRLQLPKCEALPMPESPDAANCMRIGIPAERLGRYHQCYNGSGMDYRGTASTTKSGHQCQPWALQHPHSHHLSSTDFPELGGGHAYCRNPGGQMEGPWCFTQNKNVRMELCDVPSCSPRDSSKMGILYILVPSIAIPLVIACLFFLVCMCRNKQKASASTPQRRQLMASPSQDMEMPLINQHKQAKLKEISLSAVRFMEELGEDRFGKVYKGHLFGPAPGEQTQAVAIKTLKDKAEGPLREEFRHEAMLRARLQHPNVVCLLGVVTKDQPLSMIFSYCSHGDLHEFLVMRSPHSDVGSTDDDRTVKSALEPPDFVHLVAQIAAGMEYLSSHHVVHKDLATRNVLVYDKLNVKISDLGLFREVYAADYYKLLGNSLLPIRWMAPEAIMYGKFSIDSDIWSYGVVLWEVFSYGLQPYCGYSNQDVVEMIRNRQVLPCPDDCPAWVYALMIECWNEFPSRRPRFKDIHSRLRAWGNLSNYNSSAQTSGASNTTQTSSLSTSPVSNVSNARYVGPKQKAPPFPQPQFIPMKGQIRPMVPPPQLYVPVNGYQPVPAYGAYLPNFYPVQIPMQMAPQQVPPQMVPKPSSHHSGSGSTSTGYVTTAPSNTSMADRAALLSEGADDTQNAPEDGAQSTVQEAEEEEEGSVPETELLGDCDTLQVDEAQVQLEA
UniProt Q9NYA1, whole entry: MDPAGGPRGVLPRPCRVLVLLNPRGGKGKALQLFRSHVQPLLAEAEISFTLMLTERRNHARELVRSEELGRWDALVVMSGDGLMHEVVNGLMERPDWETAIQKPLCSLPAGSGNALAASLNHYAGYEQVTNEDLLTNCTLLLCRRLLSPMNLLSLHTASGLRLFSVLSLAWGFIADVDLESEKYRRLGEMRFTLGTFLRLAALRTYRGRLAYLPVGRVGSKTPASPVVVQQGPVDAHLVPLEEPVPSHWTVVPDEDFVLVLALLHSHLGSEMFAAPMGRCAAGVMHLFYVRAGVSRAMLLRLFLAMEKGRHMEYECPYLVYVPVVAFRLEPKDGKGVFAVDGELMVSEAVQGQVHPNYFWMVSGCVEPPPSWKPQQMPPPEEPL
UniProt Q9Y6E0: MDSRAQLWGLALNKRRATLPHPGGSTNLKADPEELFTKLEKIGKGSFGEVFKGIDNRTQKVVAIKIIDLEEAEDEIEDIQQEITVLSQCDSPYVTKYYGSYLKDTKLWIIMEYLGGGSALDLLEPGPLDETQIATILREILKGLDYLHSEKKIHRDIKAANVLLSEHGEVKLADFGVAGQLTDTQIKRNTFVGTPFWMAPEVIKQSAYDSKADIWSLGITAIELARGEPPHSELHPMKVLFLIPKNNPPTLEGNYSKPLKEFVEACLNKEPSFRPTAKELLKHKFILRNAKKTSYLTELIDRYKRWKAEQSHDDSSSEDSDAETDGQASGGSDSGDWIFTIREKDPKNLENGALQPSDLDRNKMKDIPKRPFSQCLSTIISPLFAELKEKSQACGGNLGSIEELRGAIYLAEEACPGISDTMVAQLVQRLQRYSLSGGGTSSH
UniProt P42680: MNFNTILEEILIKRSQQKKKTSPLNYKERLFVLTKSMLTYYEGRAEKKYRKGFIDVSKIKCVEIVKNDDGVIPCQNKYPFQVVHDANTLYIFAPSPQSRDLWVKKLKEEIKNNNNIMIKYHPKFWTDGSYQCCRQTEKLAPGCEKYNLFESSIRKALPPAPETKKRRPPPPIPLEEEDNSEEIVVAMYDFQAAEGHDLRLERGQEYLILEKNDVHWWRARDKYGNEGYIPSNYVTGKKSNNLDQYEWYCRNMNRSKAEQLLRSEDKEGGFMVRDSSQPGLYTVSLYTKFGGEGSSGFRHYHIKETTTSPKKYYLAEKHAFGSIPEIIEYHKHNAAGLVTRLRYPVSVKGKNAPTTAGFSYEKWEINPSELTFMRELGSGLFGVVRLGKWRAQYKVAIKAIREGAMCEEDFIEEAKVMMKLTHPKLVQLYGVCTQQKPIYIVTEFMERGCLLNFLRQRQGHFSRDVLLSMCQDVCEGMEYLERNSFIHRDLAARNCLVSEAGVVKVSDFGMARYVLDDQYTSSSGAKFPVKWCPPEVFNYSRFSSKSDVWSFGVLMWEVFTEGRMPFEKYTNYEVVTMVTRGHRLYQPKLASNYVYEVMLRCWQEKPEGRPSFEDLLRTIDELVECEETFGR
UniProt P29597: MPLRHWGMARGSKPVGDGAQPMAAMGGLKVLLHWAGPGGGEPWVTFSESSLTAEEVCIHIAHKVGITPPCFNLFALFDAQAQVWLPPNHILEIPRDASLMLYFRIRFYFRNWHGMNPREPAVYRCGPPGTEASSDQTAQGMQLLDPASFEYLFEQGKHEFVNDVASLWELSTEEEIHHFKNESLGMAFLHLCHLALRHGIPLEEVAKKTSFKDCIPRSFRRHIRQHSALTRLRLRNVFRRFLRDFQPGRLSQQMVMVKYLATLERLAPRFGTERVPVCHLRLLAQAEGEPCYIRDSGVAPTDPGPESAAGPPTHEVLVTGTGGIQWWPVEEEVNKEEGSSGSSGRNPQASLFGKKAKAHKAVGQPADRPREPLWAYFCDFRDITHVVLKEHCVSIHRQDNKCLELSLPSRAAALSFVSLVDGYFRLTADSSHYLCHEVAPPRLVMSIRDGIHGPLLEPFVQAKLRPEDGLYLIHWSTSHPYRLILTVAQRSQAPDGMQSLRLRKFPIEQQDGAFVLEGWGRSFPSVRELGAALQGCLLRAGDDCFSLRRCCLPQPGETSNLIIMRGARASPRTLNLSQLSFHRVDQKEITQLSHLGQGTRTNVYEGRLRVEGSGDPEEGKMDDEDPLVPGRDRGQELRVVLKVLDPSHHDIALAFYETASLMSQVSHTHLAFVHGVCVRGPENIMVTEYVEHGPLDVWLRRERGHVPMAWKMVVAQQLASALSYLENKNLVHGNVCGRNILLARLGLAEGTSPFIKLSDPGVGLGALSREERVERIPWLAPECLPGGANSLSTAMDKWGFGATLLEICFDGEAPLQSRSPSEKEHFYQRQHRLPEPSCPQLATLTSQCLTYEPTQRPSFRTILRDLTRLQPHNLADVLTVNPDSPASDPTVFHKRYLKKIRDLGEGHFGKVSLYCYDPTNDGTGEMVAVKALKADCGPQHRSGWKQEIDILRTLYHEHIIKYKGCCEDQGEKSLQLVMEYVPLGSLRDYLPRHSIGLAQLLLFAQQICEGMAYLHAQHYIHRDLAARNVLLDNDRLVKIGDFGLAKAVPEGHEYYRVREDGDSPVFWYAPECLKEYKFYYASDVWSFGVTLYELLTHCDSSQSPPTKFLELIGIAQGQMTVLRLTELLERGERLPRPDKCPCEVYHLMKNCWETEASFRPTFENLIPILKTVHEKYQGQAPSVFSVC
UniProt Q6PHR2: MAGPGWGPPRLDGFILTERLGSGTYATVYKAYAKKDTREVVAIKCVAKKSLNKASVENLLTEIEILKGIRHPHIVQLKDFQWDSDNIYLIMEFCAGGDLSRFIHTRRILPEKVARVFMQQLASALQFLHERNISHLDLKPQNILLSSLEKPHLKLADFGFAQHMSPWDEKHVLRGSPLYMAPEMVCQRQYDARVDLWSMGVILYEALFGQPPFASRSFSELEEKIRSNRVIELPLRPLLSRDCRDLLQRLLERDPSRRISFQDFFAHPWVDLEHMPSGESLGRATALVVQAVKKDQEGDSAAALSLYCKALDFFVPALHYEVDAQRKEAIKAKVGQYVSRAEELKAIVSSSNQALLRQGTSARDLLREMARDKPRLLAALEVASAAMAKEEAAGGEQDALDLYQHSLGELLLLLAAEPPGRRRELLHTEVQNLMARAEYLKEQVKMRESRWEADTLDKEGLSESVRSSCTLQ
UniProt P07947, whole entry, looked up: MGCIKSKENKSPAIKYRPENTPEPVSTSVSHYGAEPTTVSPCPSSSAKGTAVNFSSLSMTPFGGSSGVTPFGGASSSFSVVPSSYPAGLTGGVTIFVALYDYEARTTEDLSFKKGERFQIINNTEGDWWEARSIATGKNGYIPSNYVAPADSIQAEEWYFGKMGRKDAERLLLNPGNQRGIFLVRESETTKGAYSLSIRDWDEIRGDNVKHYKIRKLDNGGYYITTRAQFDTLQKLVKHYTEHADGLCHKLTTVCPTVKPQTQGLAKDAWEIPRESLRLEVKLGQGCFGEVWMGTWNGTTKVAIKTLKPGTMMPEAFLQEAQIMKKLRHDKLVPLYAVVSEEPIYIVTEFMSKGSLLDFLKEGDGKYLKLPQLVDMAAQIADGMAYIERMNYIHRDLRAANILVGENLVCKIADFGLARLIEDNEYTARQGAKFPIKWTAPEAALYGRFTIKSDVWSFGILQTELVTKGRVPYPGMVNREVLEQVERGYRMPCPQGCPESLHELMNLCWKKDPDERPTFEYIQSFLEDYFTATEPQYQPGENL
UniProt P43403: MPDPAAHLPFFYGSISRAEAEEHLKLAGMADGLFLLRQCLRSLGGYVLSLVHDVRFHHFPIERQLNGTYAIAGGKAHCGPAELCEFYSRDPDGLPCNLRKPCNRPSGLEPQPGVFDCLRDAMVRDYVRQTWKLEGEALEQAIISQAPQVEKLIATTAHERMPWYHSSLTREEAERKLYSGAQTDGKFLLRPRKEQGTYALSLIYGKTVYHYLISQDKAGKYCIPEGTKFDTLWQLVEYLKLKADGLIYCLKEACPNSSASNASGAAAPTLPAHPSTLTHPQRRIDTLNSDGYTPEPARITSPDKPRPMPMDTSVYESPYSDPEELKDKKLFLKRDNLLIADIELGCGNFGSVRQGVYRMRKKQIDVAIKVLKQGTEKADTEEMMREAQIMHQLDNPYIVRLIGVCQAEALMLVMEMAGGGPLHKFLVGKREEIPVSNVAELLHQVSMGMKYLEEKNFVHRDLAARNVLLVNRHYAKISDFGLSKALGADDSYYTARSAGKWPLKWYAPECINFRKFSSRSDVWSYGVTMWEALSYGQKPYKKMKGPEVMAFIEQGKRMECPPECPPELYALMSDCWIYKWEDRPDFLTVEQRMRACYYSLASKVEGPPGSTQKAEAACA
UniProt P11802: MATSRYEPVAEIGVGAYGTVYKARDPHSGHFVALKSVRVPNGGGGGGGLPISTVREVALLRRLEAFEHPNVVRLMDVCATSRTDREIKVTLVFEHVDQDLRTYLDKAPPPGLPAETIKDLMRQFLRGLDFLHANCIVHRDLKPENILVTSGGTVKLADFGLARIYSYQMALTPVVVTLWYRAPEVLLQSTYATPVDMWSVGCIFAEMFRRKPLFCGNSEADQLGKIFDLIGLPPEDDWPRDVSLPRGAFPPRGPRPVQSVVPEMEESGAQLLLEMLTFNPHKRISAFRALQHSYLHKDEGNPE
UniProt P50613: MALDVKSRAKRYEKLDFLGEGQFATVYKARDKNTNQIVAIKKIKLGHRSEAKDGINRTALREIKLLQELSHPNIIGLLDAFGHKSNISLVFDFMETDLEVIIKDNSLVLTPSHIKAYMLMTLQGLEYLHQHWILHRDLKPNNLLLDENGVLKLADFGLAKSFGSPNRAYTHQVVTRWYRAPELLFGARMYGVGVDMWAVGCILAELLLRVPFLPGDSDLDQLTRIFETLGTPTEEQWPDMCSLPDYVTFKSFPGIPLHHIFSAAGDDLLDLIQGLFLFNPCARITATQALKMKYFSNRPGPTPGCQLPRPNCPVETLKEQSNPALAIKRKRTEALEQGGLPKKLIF
UniProt P50750, whole entry: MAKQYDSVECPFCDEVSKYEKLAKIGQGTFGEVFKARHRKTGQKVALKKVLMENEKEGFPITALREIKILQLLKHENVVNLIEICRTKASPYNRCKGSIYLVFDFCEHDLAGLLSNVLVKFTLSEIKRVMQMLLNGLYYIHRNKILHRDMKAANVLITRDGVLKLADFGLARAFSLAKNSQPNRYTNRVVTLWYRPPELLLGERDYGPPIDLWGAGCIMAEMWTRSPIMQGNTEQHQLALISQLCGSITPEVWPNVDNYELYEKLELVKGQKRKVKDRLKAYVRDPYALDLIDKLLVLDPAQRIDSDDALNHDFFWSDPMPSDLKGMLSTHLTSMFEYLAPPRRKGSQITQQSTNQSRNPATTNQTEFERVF

Key:
Settings in all cases: K562; 2-18 h
[1] = biological target: ROR2 (UniProt Q01974); experiment: number of time points (of 5) at which kinase-Nluc abundance scored as decreased, DMSO-normalised (count); higher = more persistent destabilization
[2] = biological target: RPS6KA1 (UniProt Q15418); experiment: as above
[3] = biological target: SPHK1 (UniProt Q9NYA1); experiment: as above
[4] = biological target: SRC (UniProt P12931); experiment: as above
[5] = biological target: STK24 (UniProt Q9Y6E0); experiment: as above
[6] = biological target: STK38 (UniProt Q15208); experiment: as above
[7] = biological target: SYK (UniProt P43405); experiment: as above
[8] = biological target: TEC (UniProt P42680); experiment: as above
[9] = biological target: TYK2 (UniProt P29597); experiment: as above
[10] = biological target: ULK3 (UniProt Q6PHR2); experiment: as above
[11] = biological target: YES1 (UniProt P07947); experiment: as above
[12] = biological target: ZAK (UniProt Q9NYL2); experiment: as above
[13] = biological target: ZAP70 (UniProt P43403); experiment: as above
[14] = biological target: CDK4 (UniProt P11802); experiment: number of time points (of 4; 2 h point missing) at which kinase-Nluc abundance scored as decreased, DMSO-normalised (count); higher = more persistent destabilization
[15] = biological target: CDK7 (UniProt P50613); experiment: as above
[16] = biological target: CDK9 (UniProt P50750); experiment: as above

Row | SMILES | number of time points [1] | number of time points [2] | number of time points [3] | number of time points [4] | number of time points [5] | number of time points [6] | number of time points [7] | number of time points [8] | number of time points [9] | number of time points [10] | number of time points [11] | number of time points [12] | number of time points [13] | number of time points [14] | number of time points [15] | number of time points [16]
1 | CCC(C)N1c2ccccc2C(=O)N(C)c2cnc(Nc3ccc(C(=O)N4CCC(N5CCN(C)CC5)CC4)cc3OC)nc21 (centres undefined) (2.5 µM) | 0 | 0 | 0 | 0 | 0 | 0 | 0 | 0 | 0 | 0 | 0 | 0 | 0 | 0 | 0 | 0
2 | Nc1ncnc2c1c(-c1cccc(OCc3ccccc3)c1)cn2C1CC(CN2CCC2)C1 (centres undefined) (2.5 µM) | 0 | 0 | 0 | 0 | 0 | 0 | 0 | 0 | 0 | 0 | 0 | 0 | 0 | 0 | 0 | 0
3 | O=C([O-])c1cc2ccccc2c(Cc2c(O)c(C(=O)[O-])cc3ccccc23)c1O.[Na+].[Na+] [Pamoic acid (disodium)] (10 µM) | 0 | 0 | 0 | 0 | 0 | 0 | 0 | 0 | 0 | 0 | 0 | 0 | 0 | 0 | 0 | 0
4 | CN(C)CCCOc1ccc(-c2ccc3ncc4c(c3c2)n(C2CCOCC2)c(=O)n4C)cn1 (2 µM) | 0 | 0 | 0 | 0 | 0 | 0 | 0 | 0 | 0 | 0 | 0 | 0 | 0 | 0 | 0 | 0
5 | CNC(=O)c1c(F)cccc1Nc1nc(Nc2cc3c(cc2OC)CCN3C(=O)CN(C)C)nc2[nH]ccc12 (10 µM) | 0 | 0 | 0 | 0 | 0 | 0 | 0 | 0 | 0 | 0 | 0 | 0 | 0 | 0 | 0 | 0
6 | Nc1ncnc2c1c(-c1ccc(Oc3ccccc3)cc1)nn2C1CCCC1 (2.5 µM) | 0 | 0 | 0 | 0 | 0 | 0 | 0 | 0 | 1 | 0 | 0 | 0 | 0 | 0 | 0 | 0
7 | COCCNc1nc2ccc(C#CC3(O)CCCCC3)cc2n1-c1ccnc(N)n1 (10 µM) | 0 | 0 | 0 | 0 | 0 | 0 | 0 | 0 | 0 | 0 | 0 | 0 | 0 | 0 | 0 | 0
8 | Oc1cc2c(cc1O)C(Cc1cccc3ccccc13)NCC2 (centres undefined) (10 µM) | 0 | 0 | 0 | 0 | 0 | 0 | 0 | 0 | 0 | 0 | 0 | 0 | 0 | 0 | 0 | 0
9 | O=C(NCCN1CCOCC1)c1cc2c(Oc3ccc(NC(=O)C4(C(=O)Nc5ccc(F)cc5)CC4)cc3)ccnc2[nH]1 [Tyrosine kinase inhibitor] (10 µM) | 0 | 0 | 0 | 0 | 0 | 0 | 0 | 0 | 0 | 0 | 0 | 0 | 0 | 0 | 0 | 0
10 | CC#CC(=O)N1CC[C@@H](n2c(=O)n(-c3ccc(Oc4ccccc4)cc3)c3c(N)ncnc32)C1 [Tirabrutinib (hydrochloride)] (10 µM) | 0 | 0 | 0 | 0 | 0 | 0 | 0 | 0 | 0 | 0 | 0 | 0 | 0 | 0 | 0 | 0
11 | O=S(=O)(NCCCN1c2ccccc2CCc2ccc(Cl)cc21)c1ccc(OC(F)(F)F)cc1 (2.5 µM) | 0 | 0 | 0 | 0 | 0 | 0 | 0 | 0 | 0 | 0 | 0 | 0 | 0 | 0 | 0 | 0
12 | Cc1ccc2cc(-c3c(C)ccc(C(=O)c4c(-c5ccccc5)n(C)n(-c5ccccc5)c4=O)c3N)ccc2n1 (2.5 µM) | 0 | 0 | 0 | 0 | 0 | 0 | 0 | 0 | 0 | 0 | 0 | 0 | 0 | 0 | 0 | 0
13 | N#Cc1c(C2CCNCC2)cc(-c2c(O)cccc2OCC2CC2)nc1N [ACHP (Hydrochloride)] (10 µM) | 0 | 0 | 0 | 0 | 0 | 0 | 0 | 0 | 0 | 0 | 0 | 0 | 0 | 0 | 0 | 0
14 | CC(=O)c1c(C)cc2cccc(O)c2c1O [Nepodin] (10 µM) | 0 | 0 | 0 | 0 | 0 | 0 | 0 | 0 | 0 | 0 | 0 | 0 | 0 | 0 | 0 | 0
15 | C[C@]1(O)CCN(c2nc(N3C[C@H](O)[C@@H](O)C3)cc(C(F)(F)F)c2C#N)C1 (10 µM) | 0 | 0 | 0 | 0 | 0 | 0 | 0 | 0 | 0 | 0 | 0 | 0 | 0 | 0 | 0 | 0
16 | C[C@H](c1ccnc(Nc2nc3ccc(-c4cc(N(C)C)ncn4)cc3[nH]2)c1)N1CCN(C(=O)CC(F)(F)F)CC1 (2.5 µM) | 0 | 0 | 0 | 0 | 0 | 0 | 0 | 0 | 0 | 0 | 0 | 0 | 0 | 0 | 0 | 0
17 | O=Nc1c(-c2c(O)[nH]c3ccc(I)cc23)[nH]c2ccccc12 [5-Iodo-indirubin-3'-monoxime] (10 µM) | 0 | 0 | 0 | 0 | 0 | 0 | 0 | 0 | 0 | 0 | 0 | 0 | 0 | 0 | 0 | 0
18 | C=CC(=O)Nc1cccc(Nc2nc(Nc3ccc(NC4CN(CCF)C4)cc3OC)ncc2C(F)(F)F)c1 (2.5 µM) | 0 | 0 | 0 | 0 | 0 | 0 | 0 | 0 | 0 | 0 | 0 | 0 | 0 | 0 | 0 | 0
19 | Cn1nccc1Nc1nccc(-c2ccn([C@H](CO)c3ccc(Cl)c(F)c3)c(=O)c2)n1 [Ravoxertinib hydrochloride] (10 µM) | 0 | 0 | 0 | 0 | 0 | 0 | 0 | 0 | 0 | 0 | 0 | 0 | 0 | 0 | 0 | 0

One compound at a time, from the list above. Values in the order: number of time points [1]	number of time points [2]	number of time points [3]	number of time points [4]	number of time points [5]	number of time points [6]	number of time points [7]	number of time points [8]	number of time points [9]	number of time points [10]	number of time points [11]	number of time points [12]	number of time points [13]	number of time points [14]	number of time points [15]	number of time points [16]
Nc1ncnc2c1c(-c1cccc(OCc3ccccc3)c1)cn2C1CC(CN2CCC2)C1 (centres undefined) (2.5 µM) in the list: 0	0	0	0	0	0	0	0	0	0	0	0	0	0	0	0
O=C([O-])c1cc2ccccc2c(Cc2c(O)c(C(=O)[O-])cc3ccccc23)c1O.[Na+].[Na+] [Pamoic acid (disodium)] (10 µM) in the list: 0	0	0	0	0	0	0	0	0	0	0	0	0	0	0	0
